Drug screen on melanoma cell lines: apoptosis marker

Compounds and concentrations:
OSI-906: C[C@]1(O)C[C@@H](c2nc(-c3ccc4ccc(-c5ccccc5)nc4c3)c3c(N)nccn32)C1 at 2 µM
dorsomorphin: c1cc(-c2cnn3cc(-c4ccc(OCCN5CCCCC5)cc4)cnc23)ccn1 at 2 µM
ABT-263: CC1(C)CCC(c2ccc(Cl)cc2)=C(CN2CCN(c3ccc(C(=O)NS(=O)(=O)c4ccc(N[C@H](CCN5CCOCC5)CSc5ccccc5)c(S(=O)(=O)C(F)(F)F)c4)cc3)CC2)C1 at 2 µM
NVP-TAE684: COc1cc(N2CCC(N3CCN(C)CC3)CC2)ccc1Nc1ncc(Cl)c(Nc2ccccc2S(=O)(=O)C(C)C)n1 at 0.4 µM
FH535: Cc1cc([N+](=O)[O-])ccc1NS(=O)(=O)c1cc(Cl)ccc1Cl at 5 µM
AZD7762: NC(=O)Nc1cc(-c2cccc(F)c2)sc1C(=O)N[C@H]1CCCNC1 at 0.1 µM
SNS-032: CC(C)(C)c1cnc(CSc2cnc(NC(=O)C3CCNCC3)s2)o1 at 0.05 µM

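The test systems are human melanoma cell lines, treated with a pair of drugs for 72 h and then stained and imaged. Values are the share of nuclei positive for cleaved PARP as a percentage of the same share in the DMSO control: 100 is the control level, higher means more apoptosis. Concentrations were fixed for each drug; these are the higher of two levels. These are primary screening values without error estimates. Basal and induced levels differ widely between cell lines.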 This is part of the screen, not chosen by result. A dash means that no value is listed here.

| # | Combination | COLO 792 | SK-MEL-30 | SK-MEL-28 | SK-MEL-5 | A101D | WM3526 | C32 | WM115 | COLO 800 | RPMI-7951 | RVH-421 | A375 | UACC-257 | MeWo | UACC-62 |
|---|---|---|---|---|---|---|---|---|---|---|---|---|---|---|---|---|
| 1 | OSI-906 + NVP-TAE684 | 158 | 65.2 | 90.1 | 144 | 59.0 | 96.2 | 72.8 | 119 | 94.0 | 43.6 | 92.6 | 52.5 | 27.7 | 122 | 121 |
| 2 | FH535 + ABT-263 | 2780 | 328 | 1250 | 757 | 113 | 1390 | 126 | 245 | 170 | 344 | 69.7 | 250 | 82.0 | 352 | 138 |
| 3 | FH535 + SNS-032 | 105 | 143 | 355 | 252 | 69.8 | 51.0 | 98.1 | 220 | 191 | 153 | 194 | 96.1 | 286 | 83.7 | 173 |
| 4 | AZD7762 + FH535 | 986 | 93.4 | 111 | 147 | 145 | 334 | 229 | 103 | 86.3 | 125 | 118 | 173 | 170 | 84.4 | 96.9 |
| 5 | dorsomorphin + AZD7762 | 135 | 280 | 230 | 35.2 | 60.4 | 288 | 142 | 167 | 256 | 178 | 84.4 | 178 | 61.9 | 116 | 132 |
| 6 | FH535 + dorsomorphin | 190 | 91.7 | 159 | 293 | 144 | 229 | 152 | 234 | 165 | 73.1 | 78.9 | 105 | 175 | 141 | 40.8 |
| 7 | dorsomorphin + OSI-906 | 87.3 | 79.8 | 34.9 | 250 | 177 | 180 | 111 | 115 | 158 | 553 | 385 | 236 | 75.1 | 221 | 97.7 |
| 8 | NVP-TAE684 + dorsomorphin | 149 | 76.5 | 163 | 135 | 165 | 132 | 150 | 362 | 104 | 167 | 94.6 | 99.9 | 50.6 | 89.3 | 234 |
| 9 | AZD7762 + NVP-TAE684 | 138 | 292 | 411 | 69.8 | 143 | 692 | 177 | 204 | 120 | 178 | 79.3 | 263 | 25.1 | 153 | 136 |
| 10 | NVP-TAE684 + ABT-263 | 1390 | 179 | 325 | 130 | 362 | 442 | 427 | 2700 | 199 | 537 | 169 | 285 | 2450 | 646 | 467 |
| 11 | SNS-032 + NVP-TAE684 | 160 | 75.1 | 99.7 | 517 | 129 | 225 | 332 | 231 | 83.9 | 228 | 55.0 | 118 | 36.0 | 109 | 372 |
| 12 | AZD7762 + SNS-032 | 135 | 240 | 253 | 145 | 184 | 465 | 224 | 206 | 133 | 501 | 86.4 | - | 33.5 | 193 | 157 |
| 13 | AZD7762 + ABT-263 | 5810 | 729 | 477 | 193 | 664 | 1100 | 2870 | 1290 | 152 | 416 | 204 | - | 2160 | 442 | 184 |
| 14 | ABT-263 + OSI-906 | 1470 | 252 | 322 | 330 | 180 | 267 | 150 | 71.5 | 142 | 680 | 189 | 341 | 939 | 195 | 332 |
| 15 | dorsomorphin + ABT-263 | 687 | 188 | 129 | 197 | 216 | 286 | 215 | 185 | 85.3 | 483 | 46.0 | 615 | 1840 | 298 | 250 |
| 16 | OSI-906 + FH535 | 141 | 124 | 127 | 317 | 195 | 94.4 | 74.7 | 103 | 176 | 163 | 196 | 241 | 236 | 108 | 72.7 |
| 17 | OSI-906 + SNS-032 | 170 | 38.8 | 169 | 175 | 121 | 110 | 66.1 | 137 | 166 | 191 | 93.4 | - | 84.3 | 119 | 228 |
| 18 | dorsomorphin + SNS-032 | 305 | 108 | 2360 | 350 | 270 | 311 | 380 | 1050 | 52.3 | 2930 | 96.3 | 204 | 56.2 | 295 | 144 |
| 19 | ABT-263 + SNS-032 | 1560 | 299 | 295 | 319 | 485 | 523 | 196 | 74.9 | 94.8 | 534 | 98.2 | - | 590 | 363 | 187 |
| 20 | AZD7762 + OSI-906 | 494 | 164 | 354 | 170 | 140 | 287 | 363 | 86.6 | 104 | 110 | 16.2 | - | 66.4 | 312 | 81.4 |
| 21 | NVP-TAE684 + FH535 | 107 | 50.6 | 294 | 129 | 125 | 62.1 | 118 | 141 | 106 | 59.3 | 166 | 91.3 | 84.1 | 109 | 48.2 |

Data from the primary screen of doi:10.1371/journal.pone.0140310, rounded.